This note sets out measurements from patent US4179433A (Richter Gedeon Vegyeszeti Gyar Rt., priority 1977, dated 1979).

The data set is described as follows: general procedure: solution-phase peptide synthesis; pentafluorophenyl active esters (Boc-AA-OPFP), triethylamine. The settings on record: for crude mass / crude yield: whole synthesis; for crude yield: scale of the general procedure 10 mmoles.

With “Boc-Arg(Tos)-Val-Tyr(Bzl)-Ile-His(Dnp)-Pro-Ile-ONB”, the crude mass came to 12.4 g and the crude yield is on record as 80% of theoretical.

Substance “Boc-Arg(Tos)-Val-Tyr(Bzl)-Ile-His(Dnp)-Pro-Leu-ONB” showed a crude mass of 7.5 g. In addition, the crude yield (related to the starting Boc-Pro-OPFP) came out at 50%.

For “Boc-OAla-Arg(Tos)-Val-Tyr-Ile-His-Pro-Ile-OH”, the step yield (coupling step) was 84%.
